The supplement of paper PMC10849652
Some of the results follow.

The chains behind the UniProt entries cited, without tags or fusion partners. Where a name states a change or a piece, a line headed by the entry shows the natural chain unless it says otherwise.
UniProt Q9HC16: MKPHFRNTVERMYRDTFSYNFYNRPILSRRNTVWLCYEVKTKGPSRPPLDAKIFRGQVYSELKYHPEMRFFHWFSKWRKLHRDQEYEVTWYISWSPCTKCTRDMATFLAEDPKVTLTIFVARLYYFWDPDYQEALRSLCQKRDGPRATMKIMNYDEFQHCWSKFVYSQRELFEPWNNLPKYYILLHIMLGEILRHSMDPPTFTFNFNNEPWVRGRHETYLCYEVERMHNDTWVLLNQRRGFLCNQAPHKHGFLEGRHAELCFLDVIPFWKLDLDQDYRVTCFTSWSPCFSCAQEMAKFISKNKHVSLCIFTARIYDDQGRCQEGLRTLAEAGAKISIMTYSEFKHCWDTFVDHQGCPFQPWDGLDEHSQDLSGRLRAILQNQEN
UniProt Q6NXT1: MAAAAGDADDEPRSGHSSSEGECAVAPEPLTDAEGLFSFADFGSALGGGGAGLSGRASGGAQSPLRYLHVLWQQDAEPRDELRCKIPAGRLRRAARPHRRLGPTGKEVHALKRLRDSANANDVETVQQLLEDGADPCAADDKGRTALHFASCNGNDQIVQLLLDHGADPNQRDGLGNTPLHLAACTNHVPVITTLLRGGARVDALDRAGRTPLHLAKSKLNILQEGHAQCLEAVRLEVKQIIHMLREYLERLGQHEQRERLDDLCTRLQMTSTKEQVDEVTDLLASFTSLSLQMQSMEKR
UniProt P20073: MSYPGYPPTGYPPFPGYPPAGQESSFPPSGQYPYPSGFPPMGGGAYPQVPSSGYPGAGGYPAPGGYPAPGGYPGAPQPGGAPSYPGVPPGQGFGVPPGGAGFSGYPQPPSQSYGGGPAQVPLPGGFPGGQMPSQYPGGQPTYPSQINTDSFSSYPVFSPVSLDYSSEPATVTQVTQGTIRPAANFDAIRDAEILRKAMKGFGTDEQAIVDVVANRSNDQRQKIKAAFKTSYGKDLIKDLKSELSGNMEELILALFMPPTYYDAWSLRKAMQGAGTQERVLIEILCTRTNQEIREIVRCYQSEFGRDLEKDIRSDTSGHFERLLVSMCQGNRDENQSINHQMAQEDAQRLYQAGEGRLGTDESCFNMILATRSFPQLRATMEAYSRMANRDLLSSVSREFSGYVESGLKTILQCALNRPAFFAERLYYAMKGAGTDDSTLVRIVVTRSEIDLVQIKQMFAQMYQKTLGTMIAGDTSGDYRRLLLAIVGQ
UniProt Q8IWW6: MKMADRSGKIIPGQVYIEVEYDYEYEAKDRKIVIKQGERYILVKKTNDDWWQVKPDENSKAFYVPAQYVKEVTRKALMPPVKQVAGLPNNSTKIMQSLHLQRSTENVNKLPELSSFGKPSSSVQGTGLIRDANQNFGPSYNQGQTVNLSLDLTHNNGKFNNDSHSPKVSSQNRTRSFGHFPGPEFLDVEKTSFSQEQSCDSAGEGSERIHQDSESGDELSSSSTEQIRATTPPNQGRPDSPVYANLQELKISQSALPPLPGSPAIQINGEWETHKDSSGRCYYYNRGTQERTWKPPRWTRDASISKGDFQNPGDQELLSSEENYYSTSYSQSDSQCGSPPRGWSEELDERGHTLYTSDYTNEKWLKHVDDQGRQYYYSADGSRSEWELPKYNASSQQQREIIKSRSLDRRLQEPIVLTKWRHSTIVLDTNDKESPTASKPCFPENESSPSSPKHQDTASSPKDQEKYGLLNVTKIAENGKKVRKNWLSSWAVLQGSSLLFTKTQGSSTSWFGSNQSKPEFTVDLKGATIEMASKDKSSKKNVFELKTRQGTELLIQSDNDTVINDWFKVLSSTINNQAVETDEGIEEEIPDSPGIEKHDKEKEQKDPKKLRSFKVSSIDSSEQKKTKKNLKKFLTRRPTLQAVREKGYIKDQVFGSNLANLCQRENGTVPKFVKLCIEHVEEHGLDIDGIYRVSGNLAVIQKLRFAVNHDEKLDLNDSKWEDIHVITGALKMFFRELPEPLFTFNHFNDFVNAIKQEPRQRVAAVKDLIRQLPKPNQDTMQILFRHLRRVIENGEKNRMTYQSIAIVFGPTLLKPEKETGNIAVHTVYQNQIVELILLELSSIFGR
UniProt O43182: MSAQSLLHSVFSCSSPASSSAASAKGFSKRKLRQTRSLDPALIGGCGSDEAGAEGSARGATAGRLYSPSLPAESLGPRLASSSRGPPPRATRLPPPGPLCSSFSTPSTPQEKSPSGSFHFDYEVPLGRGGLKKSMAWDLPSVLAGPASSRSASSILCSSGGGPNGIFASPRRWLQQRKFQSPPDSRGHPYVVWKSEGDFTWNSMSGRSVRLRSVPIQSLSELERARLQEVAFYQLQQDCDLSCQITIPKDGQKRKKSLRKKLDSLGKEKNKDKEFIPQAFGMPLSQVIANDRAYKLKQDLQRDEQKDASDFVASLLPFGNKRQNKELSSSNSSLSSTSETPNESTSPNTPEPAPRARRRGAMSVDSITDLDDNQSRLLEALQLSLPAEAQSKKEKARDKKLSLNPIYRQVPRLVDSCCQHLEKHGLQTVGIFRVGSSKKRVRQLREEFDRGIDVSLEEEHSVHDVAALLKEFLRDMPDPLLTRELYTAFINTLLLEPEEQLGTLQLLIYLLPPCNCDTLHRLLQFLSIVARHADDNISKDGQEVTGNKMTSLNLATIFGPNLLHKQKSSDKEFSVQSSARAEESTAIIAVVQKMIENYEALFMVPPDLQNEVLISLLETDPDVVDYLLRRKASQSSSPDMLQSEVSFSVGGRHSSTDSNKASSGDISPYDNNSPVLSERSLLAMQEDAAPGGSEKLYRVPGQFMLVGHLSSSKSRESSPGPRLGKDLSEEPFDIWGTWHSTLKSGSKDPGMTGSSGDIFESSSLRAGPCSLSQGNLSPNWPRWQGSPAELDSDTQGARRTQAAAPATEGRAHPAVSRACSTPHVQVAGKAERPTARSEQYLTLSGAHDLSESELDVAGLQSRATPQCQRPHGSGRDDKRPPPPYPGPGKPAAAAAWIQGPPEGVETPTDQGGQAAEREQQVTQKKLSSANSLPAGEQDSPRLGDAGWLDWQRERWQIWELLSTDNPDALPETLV
UniProt O95445: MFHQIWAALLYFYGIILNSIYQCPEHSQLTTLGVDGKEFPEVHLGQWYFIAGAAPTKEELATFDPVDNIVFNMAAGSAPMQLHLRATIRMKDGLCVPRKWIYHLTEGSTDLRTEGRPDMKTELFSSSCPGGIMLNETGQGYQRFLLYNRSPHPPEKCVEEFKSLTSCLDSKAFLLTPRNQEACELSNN
UniProt P02749: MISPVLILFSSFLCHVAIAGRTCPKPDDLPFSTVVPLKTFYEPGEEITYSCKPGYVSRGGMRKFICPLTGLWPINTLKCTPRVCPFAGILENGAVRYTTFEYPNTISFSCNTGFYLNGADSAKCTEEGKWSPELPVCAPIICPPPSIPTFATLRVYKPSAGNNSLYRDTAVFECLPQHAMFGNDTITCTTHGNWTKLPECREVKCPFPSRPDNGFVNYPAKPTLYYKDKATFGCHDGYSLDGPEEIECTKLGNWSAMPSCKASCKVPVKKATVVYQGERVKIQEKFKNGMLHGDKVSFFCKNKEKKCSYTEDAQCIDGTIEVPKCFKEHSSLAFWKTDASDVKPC
UniProt P53680: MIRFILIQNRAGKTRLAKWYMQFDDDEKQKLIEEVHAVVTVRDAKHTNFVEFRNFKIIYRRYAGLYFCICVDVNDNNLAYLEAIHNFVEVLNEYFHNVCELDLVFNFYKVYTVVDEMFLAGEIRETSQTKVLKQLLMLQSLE
UniProt P02654: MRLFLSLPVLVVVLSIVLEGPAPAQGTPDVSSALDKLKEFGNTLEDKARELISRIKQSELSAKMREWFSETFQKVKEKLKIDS
UniProt Q9Y5C1: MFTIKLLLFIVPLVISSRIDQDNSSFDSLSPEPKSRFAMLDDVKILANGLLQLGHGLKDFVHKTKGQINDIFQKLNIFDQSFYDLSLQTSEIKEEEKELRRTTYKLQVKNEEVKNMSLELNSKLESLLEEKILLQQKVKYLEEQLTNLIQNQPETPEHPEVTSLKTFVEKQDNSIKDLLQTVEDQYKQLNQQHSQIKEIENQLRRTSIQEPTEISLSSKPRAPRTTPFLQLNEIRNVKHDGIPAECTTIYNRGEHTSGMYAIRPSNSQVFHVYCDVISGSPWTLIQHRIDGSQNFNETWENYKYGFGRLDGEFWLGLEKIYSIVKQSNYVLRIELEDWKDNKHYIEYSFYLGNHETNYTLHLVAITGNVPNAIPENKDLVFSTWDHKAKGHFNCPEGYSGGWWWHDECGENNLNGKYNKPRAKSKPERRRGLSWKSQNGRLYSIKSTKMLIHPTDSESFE
UniProt Q9NW15: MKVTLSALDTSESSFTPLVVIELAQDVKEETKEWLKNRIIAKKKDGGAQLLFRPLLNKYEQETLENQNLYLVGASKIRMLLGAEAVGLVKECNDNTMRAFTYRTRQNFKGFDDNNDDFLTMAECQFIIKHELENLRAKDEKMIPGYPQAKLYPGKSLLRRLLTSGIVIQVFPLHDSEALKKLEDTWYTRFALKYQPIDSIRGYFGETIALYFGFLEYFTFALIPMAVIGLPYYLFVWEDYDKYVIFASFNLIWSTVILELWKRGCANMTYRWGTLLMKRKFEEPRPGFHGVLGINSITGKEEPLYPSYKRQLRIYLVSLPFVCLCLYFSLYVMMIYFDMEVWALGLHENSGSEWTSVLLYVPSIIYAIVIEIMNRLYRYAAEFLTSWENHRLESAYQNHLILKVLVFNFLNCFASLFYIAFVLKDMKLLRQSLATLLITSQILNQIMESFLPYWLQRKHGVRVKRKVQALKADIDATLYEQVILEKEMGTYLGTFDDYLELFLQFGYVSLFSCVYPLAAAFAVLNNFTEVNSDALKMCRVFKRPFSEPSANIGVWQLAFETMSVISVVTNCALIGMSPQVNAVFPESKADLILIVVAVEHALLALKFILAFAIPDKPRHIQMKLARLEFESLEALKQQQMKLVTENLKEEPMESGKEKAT
UniProt P52566: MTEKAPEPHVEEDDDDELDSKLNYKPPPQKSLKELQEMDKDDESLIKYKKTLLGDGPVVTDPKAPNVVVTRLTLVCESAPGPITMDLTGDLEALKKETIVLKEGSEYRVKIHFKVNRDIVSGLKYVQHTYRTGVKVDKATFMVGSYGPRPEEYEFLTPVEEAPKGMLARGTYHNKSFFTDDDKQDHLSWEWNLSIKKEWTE
UniProt P61204: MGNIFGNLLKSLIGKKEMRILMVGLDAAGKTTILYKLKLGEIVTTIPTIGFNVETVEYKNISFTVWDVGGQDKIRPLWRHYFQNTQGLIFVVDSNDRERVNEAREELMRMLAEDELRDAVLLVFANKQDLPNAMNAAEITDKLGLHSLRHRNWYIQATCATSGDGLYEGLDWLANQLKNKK
UniProt O94973, whole entry, looked up: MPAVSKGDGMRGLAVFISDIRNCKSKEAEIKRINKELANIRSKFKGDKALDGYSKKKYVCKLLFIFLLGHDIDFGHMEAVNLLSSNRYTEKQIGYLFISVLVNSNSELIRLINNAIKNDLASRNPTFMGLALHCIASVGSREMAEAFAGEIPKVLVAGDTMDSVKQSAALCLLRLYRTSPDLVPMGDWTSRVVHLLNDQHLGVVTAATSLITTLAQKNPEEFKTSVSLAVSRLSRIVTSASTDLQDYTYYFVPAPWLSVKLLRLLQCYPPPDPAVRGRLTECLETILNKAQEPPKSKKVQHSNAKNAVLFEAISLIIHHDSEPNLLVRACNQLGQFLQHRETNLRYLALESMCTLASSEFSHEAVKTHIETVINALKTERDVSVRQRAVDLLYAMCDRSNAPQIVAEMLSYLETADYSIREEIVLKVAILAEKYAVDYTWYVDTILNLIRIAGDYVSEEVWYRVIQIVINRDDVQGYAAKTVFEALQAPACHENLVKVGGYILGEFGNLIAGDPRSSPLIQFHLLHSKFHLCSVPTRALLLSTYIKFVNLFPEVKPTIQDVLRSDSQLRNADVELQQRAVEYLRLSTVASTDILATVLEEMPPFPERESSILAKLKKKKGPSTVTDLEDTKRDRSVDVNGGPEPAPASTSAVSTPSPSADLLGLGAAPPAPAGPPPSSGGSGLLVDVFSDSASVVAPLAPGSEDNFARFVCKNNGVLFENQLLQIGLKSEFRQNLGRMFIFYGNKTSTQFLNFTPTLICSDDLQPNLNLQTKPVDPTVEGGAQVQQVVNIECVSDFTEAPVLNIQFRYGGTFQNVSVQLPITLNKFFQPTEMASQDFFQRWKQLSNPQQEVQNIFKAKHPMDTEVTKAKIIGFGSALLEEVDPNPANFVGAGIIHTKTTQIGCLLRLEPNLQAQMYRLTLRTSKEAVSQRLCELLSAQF
UniProt Q96AK3: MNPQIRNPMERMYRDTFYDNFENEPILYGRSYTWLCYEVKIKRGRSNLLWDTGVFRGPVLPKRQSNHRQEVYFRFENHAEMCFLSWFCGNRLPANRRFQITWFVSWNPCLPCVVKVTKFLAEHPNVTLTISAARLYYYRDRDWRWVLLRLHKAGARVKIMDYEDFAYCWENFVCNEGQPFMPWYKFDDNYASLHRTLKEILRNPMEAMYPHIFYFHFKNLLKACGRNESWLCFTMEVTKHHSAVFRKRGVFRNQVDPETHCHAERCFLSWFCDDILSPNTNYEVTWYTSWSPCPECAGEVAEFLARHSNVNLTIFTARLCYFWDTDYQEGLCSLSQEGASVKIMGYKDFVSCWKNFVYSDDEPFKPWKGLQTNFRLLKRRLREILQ

What follows are targets tested with COc1cc(C(=O)O)ccc1NC(=O)[C@@H]1N[C@@H](CC(C)(C)C)[C@](C#N)(c2ccc(Cl)cc2F)[C@H]1c1cccc(Cl)c1F [idasanutlin] (assay: log2 fold change, soluble protein after heating vs DMSO (PISA); higher = thermal stabilisation; K562 cells, 10 uM, 30 min; active = over 0.2 and 3.5 SD of the protein, either way, in both replicates (recomputed)).
Summary of the method: (§1)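 Quantification of soluble protein used TMTpro 16plex LC-MS/MS, with channel sums equalised. Samples were the supernatant after 21,000xg for 90 min of pooled aliquots from K562 cells (2×10^6 cells/mL) treated with 10 μM compound for 30 min, heated for 3 min over 48°C-58°C, and extracted in PBS with 0.5% NP-40 at 4°C. Values, from duplicates, describe thermal stability against control samples on a log2 fold-change scale.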

Row | Target | log2 fold change
1 | ARHGAP1 (UniProt Q07960) | inactive: 0.004
2 | AP3D1 isoform 5 (UniProt O14617) | inactive: -0.017
3 | ARGLU1 (UniProt Q9NWB6) | inactive: 0.171
4 | ANK3 (UniProt Q12955) | inactive: 0.05
5 | APOBEC3G (UniProt Q9HC16) | inactive: 0.039
6 | ARHGEF12 (UniProt Q9NZN5) | inactive: 0.267
7 | AQR (UniProt O60306) | inactive: 0.02
8 | ANKRD54 (UniProt Q6NXT1) | inactive: 0.012
9 | AP1B1 (UniProt Q10567) | inactive: -0.045
10 | ANXA7 (UniProt P20073) | inactive: -0.027
11 | ANKRD17 (UniProt O75179) | inactive: 0.083
12 | APTX (UniProt Q7Z2E3) | inactive: -0.13
13 | ARHGAP12 (UniProt Q8IWW6) | inactive: -0.067
14 | ANXA4 (UniProt P09525) | inactive: -0.018
15 | ARHGAP6 (UniProt O43182) | inactive: 0.101
16 | ANXA11 (UniProt P50995) | inactive: -0.064
17 | AP2M1 (UniProt C9JTK4) | inactive: 0.224
18 | ANPEP (UniProt P15144) | inactive: 0.089
19 | APOM (UniProt O95445) | inactive: 0.155

Row | Target | log2 fold change
20 | APOH (UniProt P02749) | active: 1.05
21 | AP2S1 (UniProt P53680) | inactive: -0.033
22 | APRT (UniProt P07741) | inactive: 0.002
23 | APOC1 (UniProt P02654) | inactive: -0.017
24 | ARFGAP1 (UniProt Q8N6T3) | inactive: 0.028
25 | ANGPTL3 (UniProt Q9Y5C1) | inactive: -0.02
26 | ARHGDIA (UniProt P52565) | inactive: -0.08
27 | APOBEC3C (UniProt Q9NRW3) | inactive: 0.136
28 | ANO10 (UniProt Q9NW15) | inactive: -0.074
29 | ANK2 (UniProt Q01484) | inactive: 0.083
30 | ARHGDIB (UniProt P52566) | inactive: -0.001
31 | AP4B1 (UniProt Q9Y6B7) | inactive: -0.105
32 | ARF3 (UniProt P61204) | inactive: -0.042
33 | AP2A1 (UniProt O95782) | inactive: 0.027
34 | AP2A2 isoform 2 (UniProt O94973) | inactive: 0.022
35 | ANTKMT (UniProt Q9BQD7) | inactive: 0.036
36 | APOBEC3D (UniProt Q96AK3) | inactive: 0.318
37 | ANAPC5 (UniProt Q9UJX4) | inactive: -0.004

The targets below were run with COc1cc(Nc2ncc3c(n2)-c2ccc(Cl)cc2C(c2c(F)cccc2OC)=NC3)ccc1C(=O)O [alisertib] in the same assay as above.
Summary of the method: as §1

Row | Target | log2 fold change
38 | ARAP1 (UniProt Q96P48) | inactive: -0.037
39 | ARHGAP1 (UniProt Q07960) | inactive: -0.011
40 | AP3D1 isoform 5 (UniProt O14617) | inactive: -0.026
41 | ARGLU1 (UniProt Q9NWB6) | inactive: -0.13
42 | ANK3 (UniProt Q12955) | inactive: -0.187
43 | AP5M1 (UniProt Q9H0R1) | inactive: -0.053
44 | APOBEC3G (UniProt Q9HC16) | inactive: -0.092
45 | ARHGEF12 (UniProt Q9NZN5) | inactive: 0.14
46 | AQR (UniProt O60306) | inactive: -0.147
47 | ANKRD54 (UniProt Q6NXT1) | inactive: 0.033
48 | AP1B1 (UniProt Q10567) | inactive: -0.041
49 | ANXA7 (UniProt P20073) | inactive: -0.081
50 | ANKRD17 (UniProt O75179) | inactive: 0.487
51 | ARHGAP12 (UniProt Q8IWW6) | inactive: -0.023
52 | ANXA4 (UniProt P09525) | inactive: 0.351
53 | ARHGAP6 (UniProt O43182) | inactive: -0.022
54 | ANXA11 (UniProt P50995) | inactive: -0.01
55 | AP2M1 (UniProt C9JTK4) | inactive: -0.177

Row | Target | log2 fold change
56 | ANPEP (UniProt P15144) | inactive: 0.065
57 | APOM (UniProt O95445) | inactive: -0.042
58 | APOH (UniProt P02749) | inactive: 0.151
59 | AP2S1 (UniProt P53680) | inactive: -0.159
60 | APRT (UniProt P07741) | inactive: -0.066
61 | APOC1 (UniProt P02654) | inactive: -0.012
62 | ARFGAP1 (UniProt Q8N6T3) | inactive: 0.047
63 | ANGPTL3 (UniProt Q9Y5C1) | inactive: -0.033
64 | ARHGDIA (UniProt P52565) | inactive: -0.052
65 | APOBEC3C (UniProt Q9NRW3) | inactive: -0.173
66 | ANO10 (UniProt Q9NW15) | inactive: -0.014
67 | ANK2 (UniProt Q01484) | inactive: -0.076
68 | ARHGDIB (UniProt P52566) | inactive: 0.009
69 | ARF3 (UniProt P61204) | inactive: -0.044
70 | AP2A1 (UniProt O95782) | inactive: -0.041
71 | AP2A2 isoform 2 (UniProt O94973) | inactive: -0.095
72 | APOBEC3D (UniProt Q96AK3) | inactive: -0.07
73 | ANAPC5 (UniProt Q9UJX4) | inactive: -0.06
